In publication PMC3043051 one finds binding data, which are given here for 1 substance.

Chains of the proteins cited; added tags and fusions are not shown. Residues count along the entry.
UniProt P31345, residues 1-33: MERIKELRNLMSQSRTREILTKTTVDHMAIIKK
UniProt P31341, residues 676-757: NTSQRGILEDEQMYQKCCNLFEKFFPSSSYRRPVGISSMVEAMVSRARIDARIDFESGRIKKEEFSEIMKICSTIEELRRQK

The test concerns the target PB2 construct (amino acids 1–33) (influenza virus strain A/Victoria/3/1975(H3N2)) (UniProt P31345). Kind of test: pull-down.

Results are given in words; binding and its absence hold for the method and conditions named. In cells and extracts the contact can be indirect. Some entries that bind do so weakly or less than the wild type.

For the substance “PB1-(676–757), C-terminal fragment of the influenza polymerase PB1 subunit, N-terminal FLAG tag (from UniProt P31341 676-757) (domain or fragment)”, the binding entry was “binds”.
